# Measurements published in PubChem BioAssay AID493014 (National Center for Advancing Translational Sciences (NCATS), 2011).
# Some of the results follow. The main result of the screen is listed elsewhere. These columns were measured beside it and carry no call. The list favours compounds with an active or inconclusive main result. Words in brackets tell the shape of the fitted curve; partial curves, single points and poor fits give uncertain potencies.
# Assay: qHTS Assay to Find Inhibitors of Chronic Active B-Cell Receptor Signaling
# Details: ABC-DLBCL IkBa-CBG/CBR reporter, luminescence ratio (green luciferase fused to IkBa over red control in TMD8 lymphoma cells), 4 h
# Method in brief: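 TMD8 ABC-DLBCL cells carrying doxycycline-inducible green luciferase fused to IkappaBalpha plus unfused red luciferase were exposed to compounds (up to 46 uM) for 4 hrs at 37C. Activity came from the overlap-corrected green/red luminescence ratio.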
# [1] = measured here: CBR red luminescence, cell number
# [2] = measured here: IkBa-CBG green luminescence
SMILES,AC50 [1],AC50 [2]
COC(=O)c1cccc(Nc2c(-c3ccc(OC)cc3)nc3nc[nH]n23)c1,"6.31 µM [falling, partial curve]",
C/C(CC(=O)Nc1cc(Cl)ccc1C)=N\NC(=O)C(=O)N1CCCC1,"12.6 µM [falling, partial curve, poor fit]",
O=C(/C=C/c1ccc(Cl)cc1)NC1CC2CCC1C2 (stereo unspecified),"14.1 µM [falling, single point]",
CCC(=O)N(Cc1cc2ccc(C)cc2[nH]c1=O)c1ccccc1OC,"0.562 µM [rising, partial curve, poor fit]",
Cc1nc(SCC(=O)N2CCN(C(=O)c3cccs3)CC2)c2c(C)c(C)sc2n1,"0.461 µM [rising, full curve]",
O=C(Nc1ccc(-c2ccc3nncn3n2)cc1)C1CCCC1,"35.5 µM [rising, single point]",
CC1(C)NC(C)(C)/C(=C\c2cccs2)C(=O)C1=O,"35.5 µM [falling, single point]",
O=C(Nc1nnc(-c2ccc(F)cc2)o1)c1cccc([N+](=O)[O-])c1,"5.62 µM [falling, full curve, poor fit]",
O=C(NCCN1CCOCC1)c1ccc(/C=C2\Sc3ccccc3N(Cc3ccccc3F)C2=O)cc1,"10 µM [falling, partial curve, poor fit]",
O=C(Nc1ccccc1N1CCN(C(=O)c2ccccc2)CC1)c1cc(Br)ccc1Cl,"11.2 µM [falling, partial curve]",
Cc1ccc2nc(SC(C(=O)Nc3ccc(F)cc3)c3ccccc3)[nH]c2c1 (stereo unspecified),"6.51 µM [rising, single point]",
CCn1cc(Cl)c(C(=O)Nc2cccc(C(F)(F)F)c2)n1,"0.112 µM [rising, full curve, poor fit]",
C=CCSc1nc2ccccc2c2nc(-c3ccccc3)nn12,"15.8 µM [rising, partial curve, poor fit]",
CCc1ccc(-c2cc(C(=O)Nn3cnnc3)c3ccccc3n2)cc1,"20.6 µM [falling, single point]",
CCN1N=C(c2ccccc2)Cn2c1nc1ccccc12,"23.1 µM [falling, partial curve, poor fit]","10.3 µM [rising, partial curve, poor fit]"
CCc1nc(SCc2ccccc2)n[nH]1,"7.94 µM [rising, full curve, poor fit]",
O=C(Nc1ccc(S(=O)(=O)Nc2nccs2)cc1)c1cccc(F)c1,,"35.5 µM [rising, partial curve, poor fit]"
Cc1cc(=O)oc2cc(OCC(=O)OCC(=O)Nc3ccc(C(C)C)cc3)ccc12,"1.03 µM [rising, full curve, poor fit]",
COc1ccc(-c2[nH]ncc2CN(C)Cc2nonc2C)c(OC)c1,"2.82 µM [falling, partial curve, poor fit]",
CC1(C)CC(=O)C=C(NCCN2CCNCC2)C1,"23.1 µM [falling, single point]",
O=C(NC(=S)NCC1CCCO1)c1ccc(Cl)cc1Cl (stereo unspecified),"8.2 µM [rising, partial curve, poor fit]",
COc1cc(CC(=O)NCc2ccc3c(c2)OCO3)cc(OC)c1OC,"2.06 µM [falling, single point]",

SMILES,AC50 [1],AC50 [2]
CCOc1ccc(/C(CCC(=O)O)=N/NC(=S)NCCc2ccccc2)cc1,,"35.5 µM [falling, single point]"
CC[C@]12c3[nH]c4cc(-c5ccco5)ccc4c3CCN1C(=O)[C@@H](CC(=O)NCCc1ccccn1)C[C@@H]2C(=O)N1CCN(C(=O)C2CC2)CC1,"20.6 µM [rising, partial curve]",
COc1ccc(OC)c(-n2nnnc2SCC(=O)Nc2ccc(C(=O)N3CCCCC3)cc2)c1,"3.26 µM [falling, partial curve, poor fit]",
COc1ccccc1/C=C/C(=O)NCC(=O)N/N=C/c1ccc(C(=O)O)cc1,"8.91 µM [falling, partial curve, poor fit]",
Cc1cc(-n2nc(C)cc2C)n2ncc(-c3ccccc3)c2n1,"0.708 µM [rising, full curve]",
COc1cccc(C(=O)NCCC2=CCCCC2)c1OC,"1.03 µM [rising, full curve, poor fit]",
COc1cccc(C(=O)Nc2ccc(NC(=O)c3ccco3)cn2)c1,"10 µM [falling, partial curve, poor fit]",
O=c1nc2c(-c3ccc(F)cc3Cl)n[nH]n2c2ccccc12,"5.62 µM [falling, partial curve]",
Cc1cc(C(=O)NNC(=S)Nc2cccc(C(F)(F)F)c2)nn1C,"22.4 µM [rising, partial curve, poor fit]",
O=C(Nc1cccc(F)c1)c1ccc(S(=O)(=O)NCC2CCCO2)cc1 (stereo unspecified),"15.8 µM [falling, partial curve, poor fit]",
Cc1nn(-c2ccccc2)c2nc(N)c(C(N)=O)cc12,"2.51 µM [falling, partial curve, poor fit]",
COc1cccc(C(c2nnnn2Cc2ccccc2)N2CCN(C(=O)c3ccco3)CC2)c1OC (stereo unspecified),"23.1 µM [rising, single point]",
CC(C)NC(=O)c1ccc(C(C)C)cc1,"3.16 µM [falling, partial curve, poor fit]",
CCOc1ccccc1NC(=O)C(c1ccccc1)N1CCN(CC(=O)N2CCOCC2)CC1 (stereo unspecified),"29.1 µM [rising, single point]",
CC(C)Oc1ccc(C(=O)NC2(C(F)(F)F)N=C3SCCN3C2=O)cc1 (stereo unspecified),"29.1 µM [rising, single point]",
Cc1ccc(NC(=O)c2ccc(OC(=O)COc3ccc(Cl)c(C)c3)cc2)cc1,"2.59 µM [falling, full curve]",
CCSc1nc2ccc(C)cc2cc1C#N,"11.2 µM [rising, partial curve]",
C(=N\Nc1ccccn1)/c1ccc2c(c1)OCCO2,"0.794 µM [rising, partial curve, poor fit]",
O=C(COC(=O)c1ccccc1NC(=O)c1ccco1)NC1CCS(=O)(=O)C1 (stereo unspecified),"35.5 µM [falling, single point]",
CCOc1ccc(NC(=O)COc2ccccc2C(=O)NCc2ccccc2)cc1,"11.6 µM [rising, partial curve]",
Cc1ccc(Nc2nnc(SCC(=O)NC3CCCc4ccccc43)s2)cc1 (stereo unspecified),"29.1 µM [falling, single point]",
CC1Sc2ccc(C(=O)Nc3ccccc3OC(F)F)cc2NC1=O (stereo unspecified),"11.6 µM [falling, partial curve]",

SMILES,AC50 [1],AC50 [2]
COc1cc(SSc2cc(OC)cc([N+](=O)[O-])c2N)c(N)c([N+](=O)[O-])c1,"12.6 µM [falling, single point]","7.94 µM [falling, partial curve]"
CN(CC1COc2ccccc2O1)C(=O)c1ccc(N(C)C)cc1 (stereo unspecified),"11.2 µM [rising, partial curve]",
C=CCNC(=S)Nc1cccc([N+](=O)[O-])c1,"5.01 µM [rising, partial curve, poor fit]",
COc1ccc(/C=N/Nc2nc3ccccc3o2)cc1O,"13 µM [falling, partial curve, poor fit]",
Cc1nn(-c2ccc(F)cc2)c(Cl)c1/C=N/NC(=O)c1ccc(O)cc1,"7.08 µM [falling, partial curve]",
COc1ccc(C2CC(c3ccccc3)=NN2C(=O)COC(=O)c2ccc(Cl)nc2)cc1 (stereo unspecified),"20.6 µM [rising, partial curve, poor fit]",
Cc1cc(NC(=O)COc2cccc3cccnc23)no1,"11.6 µM [falling, partial curve, poor fit]",
CCc1ccc(Nc2nnc(SCC(=O)NC(=O)c3cccn3C)s2)cc1,"1.12 µM [falling, partial curve]",
O=C(Nc1nccs1)c1ccc(NC(=O)C2CC=CCC2C(=O)O)cc1 (stereo unspecified),"25.1 µM [falling, single point]",
COc1c(F)c(F)c(C(=O)O)c(Nc2ccc(C)cc2C)c1F,"5.01 µM [rising, partial curve]",
O=C(O)c1cccnc1C(=O)O,"4.11 µM [rising, single point]",
C/C(=C\C(=O)c1ccncc1)Nc1ccccc1O,"14.1 µM [falling, partial curve]",
COc1ccccc1C(=O)CSc1nnc(-c2ccco2)o1,"10 µM [falling, partial curve]",
COc1ccc(OC)c(C(=O)CN2C(=O)NC(C)(c3ccccc3)C2=O)c1 (stereo unspecified),"15.8 µM [rising, single point]",
O=C(Nc1nc2ccc(F)cc2s1)c1cccs1,"1.26 µM [falling, full curve]",
CC(=O)c1ccc(-c2nc3ccccc3n2C)o1,"29.1 µM [falling, single point]",
COc1ccc(C(C)=O)cc1COC(=O)c1ccc2c(c1)OCCO2,"29.1 µM [rising, single point]",
CN(C(=O)COC(=O)/C=C/c1ccc2ccccc2n1)c1c(N)n(Cc2ccccc2)c(=O)[nH]c1=O,"3.66 µM [falling, partial curve, poor fit]",
CC(NC(=O)C1CCC(CNC(=O)[C@@H]2Cc3ccccc3CN2)CC1)c1ccccc1 (stereo partly specified),"11.2 µM [falling, partial curve]",
Cc1ccc(/C=C2/Sc3ccc(C(=O)NCc4ccccn4)cc3NC2=O)cc1,"0.631 µM [falling, full curve, poor fit]",

# Looked up above:
# For AC50 [1], `C=CCNC(=S)Nc1cccc([N+](=O)[O-])c1` has 5.01 µM [rising, partial curve, poor fit]
# For AC50 [1], `Cc1cc(NC(=O)COc2cccc3cccnc23)no1` has 11.6 µM [falling, partial curve, poor fit]
# For AC50 [1], `C/C(=C\C(=O)c1ccncc1)Nc1ccccc1O` has 14.1 µM [falling, partial curve]
